Results reported in PubChem BioAssay AID588590 (National Center for Advancing Translational Sciences (NCATS), 2011).
Out of some 390,000 compounds screened, about 4,000 (1%) were called active. Inconclusive means that the source gave no clear call. Such entries were picked first, then a sample of the others. Calls come from the whole dose curve; as a rule, active = well fitted inhibition curve with a large enough effect; inconclusive = small, poorly fitted or top-dose-only effect, or another doubt; inactive = no such curve, though single readings can be large or run the other way. Where the call is inconclusive, the potency comes from a doubtful curve fit.

Chains of the proteins cited; added tags and fusions are not shown. Lines headed by an entry give the natural chain unless they say otherwise; changes in a name come on top.
UniProt Q9UNA4: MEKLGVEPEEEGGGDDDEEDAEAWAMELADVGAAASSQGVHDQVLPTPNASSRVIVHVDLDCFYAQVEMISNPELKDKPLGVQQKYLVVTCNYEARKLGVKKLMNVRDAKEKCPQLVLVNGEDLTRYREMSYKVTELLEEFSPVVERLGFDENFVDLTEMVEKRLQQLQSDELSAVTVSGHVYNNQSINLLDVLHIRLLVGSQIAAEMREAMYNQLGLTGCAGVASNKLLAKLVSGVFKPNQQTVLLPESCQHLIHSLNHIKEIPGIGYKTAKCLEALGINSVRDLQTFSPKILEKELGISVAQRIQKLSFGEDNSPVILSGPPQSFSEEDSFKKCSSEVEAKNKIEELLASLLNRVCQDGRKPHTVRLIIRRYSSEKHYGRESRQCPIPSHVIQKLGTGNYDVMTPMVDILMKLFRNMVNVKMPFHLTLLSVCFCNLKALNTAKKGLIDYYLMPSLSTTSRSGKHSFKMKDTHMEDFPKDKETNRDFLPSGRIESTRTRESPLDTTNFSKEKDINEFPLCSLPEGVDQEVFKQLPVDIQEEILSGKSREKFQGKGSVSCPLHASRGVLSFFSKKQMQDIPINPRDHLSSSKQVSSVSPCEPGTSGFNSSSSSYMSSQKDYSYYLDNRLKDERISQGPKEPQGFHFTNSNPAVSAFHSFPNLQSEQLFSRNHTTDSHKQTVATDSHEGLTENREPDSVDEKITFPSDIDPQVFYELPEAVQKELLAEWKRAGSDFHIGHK

Target: DNA polymerase iota (Homo sapiens) (UniProt Q9UNA4)
Assay: qHTS for Inhibitors of Polymerase Iota
Conditions: Pol iota fluorescent replication assay, 10 min; series mostly up to 115 µM
Summary of the method: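 Fluorescent replication assay read twice, at 0 min and 10 min after adding 50 nM (final) substrate. Enzyme (10 nM) and compounds were first incubated 15 min at room temperature; enzyme-free buffer wells were negative controls.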
Potency is the fitted concentration of half-maximal effect.

Q: With `C=CCn1c(NC(=O)c2ccc(Br)o2)c(C(=O)OCC)sc1=S` as the compound, how does the Potency read?
A: The Potency was inconclusive: 14.1 µM [inhibitor, partial curve, poor fit].

Q: Which Potency does the source give for `CC(Oc1ccc(Cl)cc1)C(=O)NCCCn1ccnc1` (stereo unspecified) here?
A: Its Potency is inconclusive: 31.6 µM [inhibitor, single point].

Q: With `O=C(N/N=C/c1ccc([N+](=O)[O-])s1)C(O)c1ccccc1` (stereo unspecified) as the compound, how does the Potency read?
A: Its Potency is inconclusive: 79.4 µM [inhibitor, single point].

Q: For `CCOc1cc(N2CCOCC2)c(OCC)cc1NC(=O)c1ccc(-n2ccnc2)c([N+](=O)[O-])c1`, which Potency is on record?
A: Its Potency is inconclusive: 89.1 µM [inhibitor, single point].

Q: How did the Potency turn out when `CCOC(=O)C1=C(C)NC(=O)CC1c1cc2c(cc1[N+](=O)[O-])OCO2` (stereo unspecified) was run?
A: The Potency was “inactive”.

Q: `CC(=O)c1ccc(NC(=O)Cn2cnc(S(=O)(=O)N3CCc4ccccc43)c2)cc1` was tested. Which Potency did it give?
A: Its Potency is inconclusive: 31.6 µM [inhibitor, partial curve].

Q: With `CCN(CC)CC(=O)c1ccc(-c2ccccc2)cc1` as the compound, how does the Potency read?
A: Its Potency is inconclusive: 20 µM [inhibitor, full curve].

Q: With `Fc1cccc(-c2nn[nH]n2)c1` as the compound, how does the Potency read?
A: Its Potency is “inactive”.

Q: Which Potency does the source give for `COc1ccc(C(c2nnnn2C2CCCC2)N2CCN(C3CCCC3)CC2)cc1OC` (stereo unspecified) here?
A: Its Potency is inconclusive: 14.1 µM [inhibitor, full curve, poor fit].

Q: With `COc1ccc(N=Cc2sc(O)c3ccccc23)cc1` as the compound, how does the Potency read?
A: The Potency was inconclusive: 11.2 µM [inhibitor, partial curve, poor fit].

Q: How did the Potency turn out when `O=C1CN(C(=O)COC(=O)C23CC4CC(CC(O)(C4)C2)C3)c2ccccc2N1` was run?
A: The Potency was “inactive”.

Q: `Cc1ccc(C(=O)N2CCCCC2)cc1NC(=O)c1nsc2ccccc12` was tested. Which Potency did it give?
A: Its Potency is “inactive”.

Q: With `COc1ccc(OC)c(/C(O)=C/C(=O)C(=O)Nc2cc(C)cc(C)c2)c1` as the compound, how does the Potency read?
A: Its Potency is inconclusive: 39.8 µM [inhibitor, single point].

Q: For `COc1cccc(-c2cc(C(=O)NCc3ccco3)c3ccccc3n2)c1`, which Potency is on record?
A: The Potency was inconclusive: 20 µM [inhibitor, full curve, poor fit].

Q: With `CCc1ccc(OCC(=O)c2c(O)c3ccccc3oc2=O)cc1` as the compound, how does the Potency read?
A: The Potency was inconclusive: 15.8 µM [inhibitor, partial curve, poor fit].

Q: How did the Potency turn out when `Cc1cccc(NC(=O)CC2SC(=O)N(c3ccccc3)C2=O)c1` (stereo unspecified) was run?
A: The Potency was “inactive”.

Q: How did the Potency turn out when `O=C(Cc1coc2cc3c(cc12)CCC3)OCc1cc(=O)n2c(n1)sc1ccccc12` was run?
A: Its Potency is inconclusive: 28.2 µM [inhibitor, partial curve, poor fit].

Q: Which Potency does the source give for `CC1Nc2ncnc(N3CCc4ccccc4C3)c2N(Cc2ccc(Br)cc2)C1=O` (stereo unspecified) here?
A: The Potency was inconclusive: 35.5 µM [inhibitor, single point].

Q: How did the Potency turn out when `O=C(CCN1C(=O)S/C(=C\c2cccs2)C1=O)Nc1nccs1` was run?
A: Its Potency is “inactive”.

Q: Which Potency does the source give for `CN(c1ccc(/C=C/c2ccccc2)cc1)P1(=O)NCCCO1` (stereo unspecified) here?
A: The Potency was “inactive”.

Q: `CCOc1ccc2nc(NC(=O)c3nc(SCc4ccccc4C)ncc3Cl)sc2c1` was tested. Which Potency did it give?
A: Its Potency is “inactive”.

Q: With `CC(=O)NC(Cc1cc(C)ccc1C)C(=O)N1CCN(C(=O)c2ccccc2Br)CC1` (stereo unspecified) as the compound, how does the Potency read?
A: The Potency was inconclusive: 10 µM [inhibitor, partial curve, poor fit].

Q: How did the Potency turn out when `Cc1ccc(S(=O)(=O)NCC(=O)NCC2COc3ccccc3O2)cc1C` (stereo unspecified) was run?
A: Its Potency is “inactive”.

Q: With `Cc1ccc(-c2onc(C)c2C)cc1S(=O)(=O)N1CCOc2ccc(Cl)cc21` as the compound, how does the Potency read?
A: Its Potency is inconclusive: 79.4 µM [inhibitor, single point].

Q: With `Cc1ccc(CN2[C@@H](Cc3ccccc3)C(=O)CS2(=O)=O)cc1` as the compound, how does the Potency read?
A: The Potency was inconclusive: 22.4 µM [inhibitor, partial curve, poor fit].

Q: With `Cn1cnnc1SCC(=O)c1ccco1` as the compound, how does the Potency read?
A: Its Potency is inconclusive: 39.8 µM [inhibitor, single point].

Q: Which Potency does the source give for `COc1ccc2cc(C#N)c(N3CCN(Cc4nnnn4CCC(C)C)CC3)nc2c1` here?
A: Its Potency is inconclusive: 35.5 µM [inhibitor, single point].

Q: How did the Potency turn out when `Cc1cc(C(c2ccc(C)o2)c2ccc(C)o2)c(O)c([N+](=O)[O-])c1` was run?
A: The Potency was inconclusive: 15.8 µM [inhibitor, partial curve, poor fit].

Q: Which Potency does the source give for `O=C(/C=C\NCC(=O)c1ccccc1)c1ccc2ccccc2c1` here?
A: Its Potency is “inactive”.

Q: How did the Potency turn out when `CCN(CC)S(=O)(=O)c1ccc2c(c1)N(CC(=O)N1CCN(c3cccc(C)c3C)CC1)C(=O)CO2` was run?
A: The Potency was “inactive”.

Q: How did the Potency turn out when `O=Cc1cn(-c2ccccc2)nc1-c1ccc2c(c1)OCCO2` was run?
A: The Potency was inconclusive: 39.8 µM [inhibitor, single point].

Q: Which Potency does the source give for `O=C(c1cc2cc(Br)ccc2[nH]1)N1CCc2ccccc21` here?
A: The Potency was inconclusive: 89.1 µM [inhibitor, single point].

Q: For `CCOC(=O)C1CCN(C(=O)Cn2nc(CC)n3c(cc4sccc43)c2=O)CC1`, which Potency is on record?
A: Its Potency is “inactive”.

Q: With `COC(=O)CN1C(=O)[C@H]2[C@@H](c3ccc(C)o3)N3C(=O)CN(Cc4ccc(-c5ccccc5)cc4)C(=O)[C@@]3(C)[C@H]2C1=O` as the compound, how does the Potency read?
A: Its Potency is “inactive”.

Q: For `CC(C)CN(C)c1nc(N)c(C(=O)N=C(N)N)nc1Cl`, which Potency is on record?
A: The Potency was “inactive”.

Q: For `Cc1ccc(C=C2C(=O)c3ccccc3C2=O)o1`, which Potency is on record?
A: Its Potency is active: 22.4 µM.

Q: How did the Potency turn out when `NC(=O)CC(NC(=O)c1cccc(Br)c1)c1ccc(N2CCN(c3ccc(F)cc3)CC2)c([N+](=O)[O-])c1` (stereo unspecified) was run?
A: The Potency was inconclusive: 25.1 µM [inhibitor, full curve].

Q: How did the Potency turn out when `CCNC(=O)CSc1ncnc2sccc12` was run?
A: Its Potency is inconclusive: 112 µM [inhibitor, partial curve, poor fit].

Q: With `CC(NC(=O)Cn1ccc2cc(S(=O)(=O)N3CCCCCC3)ccc21)c1ccccc1` (stereo unspecified) as the compound, how does the Potency read?
A: Its Potency is inconclusive: 79.4 µM [inhibitor, single point].

Q: Which Potency does the source give for `O=C(COc1ccccc1[N+](=O)[O-])OCCCOC(=O)COc1ccccc1[N+](=O)[O-]` here?
A: The Potency was “inactive”.

Q: With `CCOc1cc(CNS(=O)(=O)c2ccc3c(c2)C(C)(C)C(=O)N3)cc(OCC)c1OCC` as the compound, how does the Potency read?
A: Its Potency is inconclusive: 89.1 µM [inhibitor, single point].

Q: Which Potency does the source give for `[O-]C1=N/[N+](=C/c2ccccc2Cl)CC1` here?
A: The Potency was inconclusive: 39.8 µM [inhibitor, partial curve, poor fit].

Q: Which Potency does the source give for `COc1ccc(N2CCN(C(=O)c3cccn3-c3nnc(N4CCCC4)s3)CC2)cc1` here?
A: Its Potency is “inactive”.

Q: `Cc1ccccc1C(=O)N1CCC(C(=O)Nc2ccc(S(=O)(=O)N3C(C)CCCC3C)cc2)CC1` (stereo unspecified) was tested. Which Potency did it give?
A: Its Potency is inconclusive: 89.1 µM [inhibitor, single point].

Q: Which Potency does the source give for `O=[N+]([O-])c1ccc2c(c1)C=C/C2=C/c1ccccc1` here?
A: The Potency was inconclusive: 70.8 µM [inhibitor, partial curve].

Q: With `N#Cc1nc(-c2ccccc2)cc(-c2ccccc2)n1` as the compound, how does the Potency read?
A: Its Potency is “inactive”.

Q: With `Cc1nc(NC(=O)c2ccc(F)cc2)sc1C(=O)Nc1ccc2c(c1)CCC2` as the compound, how does the Potency read?
A: The Potency was inconclusive: 35.5 µM [inhibitor, single point].

Q: `Cn1c(=O)[nH]c(=O)c2c1nc(CN1CCN(c3ccc(F)cc3)CC1)n2CCN1CCOCC1` was tested. Which Potency did it give?
A: The Potency was inconclusive: 89.1 µM [inhibitor, partial curve, poor fit].

Q: `CN(C)NC1CCS(=O)(=O)C1` (stereo unspecified) was tested. Which Potency did it give?
A: The Potency was inconclusive: 22.4 µM [inhibitor, single point].

Q: How did the Potency turn out when `O=C(NCCC1=CCCCC1)c1ccc(Cl)c(S(=O)(=O)N2CCCCC2)c1` was run?
A: Its Potency is inconclusive: 20 µM [inhibitor, partial curve].

Q: With `COC(=O)c1ccc(C(=S)N2CCCCC2)cc1` as the compound, how does the Potency read?
A: The Potency was inconclusive: 39.8 µM [inhibitor, partial curve, poor fit].

Q: With `C=C(C)n1c(=O)n(Cc2ccc(C)cc2)c2ccccc21` as the compound, how does the Potency read?
A: The Potency was inconclusive: 63.1 µM [inhibitor, single point].

Q: For `Cc1cccc(NC(=O)CNC(=O)c2ccc3nc[nH]c3c2)c1C`, which Potency is on record?
A: The Potency was inconclusive: 39.8 µM [inhibitor, partial curve].

Q: `Cc1ccc(C(=O)Oc2csc(=S)n2C(=O)c2ccc(C)cc2)cc1` was tested. Which Potency did it give?
A: The Potency was inconclusive: 3.16 µM [inhibitor, full curve, poor fit].

Q: With `CCc1cc(C(=O)N=Nc2c(O)[nH]c3ccc([N+](=O)[O-])cc23)c2ccccc2n1` as the compound, how does the Potency read?
A: The Potency was inconclusive: 14.1 µM [inhibitor, full curve, poor fit].

Q: With `COc1ccc(/C=C/C(=O)c2ccc(C(=O)/C=C/c3ccc(OC)c(OC)c3)cc2)cc1OC` as the compound, how does the Potency read?
A: The Potency was inconclusive: 3.55 µM [inhibitor, full curve, poor fit].

Q: For `COc1cc(CC(=O)OCC(=O)Nc2cc([N+](=O)[O-])ccc2F)cc(OC)c1OC`, which Potency is on record?
A: Its Potency is inconclusive: 12.6 µM [inhibitor, full curve, poor fit].

Q: Which Potency does the source give for `CCCCc1nnc(SCc2cc(=O)c3cc(F)ccc3[nH]2)n1C` here?
A: Its Potency is “inactive”.

Q: Which Potency does the source give for `COC(=O)c1c(-c2cccnc2)csc1NC(=O)c1ccc2c(c1)OCO2` here?
A: Its Potency is inconclusive: 17.8 µM [inhibitor, partial curve, poor fit].

Q: Which Potency does the source give for `CN(C)c1ccc(S(=O)(=O)NCC(=O)OCC(=O)NC(=O)C2CCCCC2)cc1[N+](=O)[O-]` here?
A: The Potency was inconclusive: 4.47 µM [inhibitor, partial curve, poor fit].

Q: `CC(C(=O)NC1C(=O)N2C(C(=O)O)=C(CSc3nnnn3C)CSC12)n1cc(Cl)cn1` (stereo unspecified) was tested. Which Potency did it give?
A: Its Potency is inconclusive: 50.1 µM [inhibitor, partial curve, poor fit].

Q: For `Cc1nnc(SCC(=O)Nc2sccc2C#N)s1`, which Potency is on record?
A: The Potency was active: 39.8 µM.

Q: Which Potency does the source give for `CCC(NC(=O)c1ccccc1NC(=O)c1ccc(OC)cc1)C(=O)N1CCCC1` (stereo unspecified) here?
A: The Potency was “inactive”.

Q: `Cc1ccc(/C=C2/C(=N)N3N=C(CC(=O)N4CCCC4)SC3=NC2=O)o1` was tested. Which Potency did it give?
A: The Potency was inconclusive: 50.1 µM [inhibitor, partial curve].

Q: How did the Potency turn out when `Cc1ccc(OCc2nc(-c3ccc(Cl)cc3)n[nH]2)cc1` was run?
A: The Potency was inconclusive: 112 µM [inhibitor, single point].

Q: `CO/N=C/CC(=O)c1ccc([N+](=O)[O-])c(CS(=O)(=O)c2ccc(Cl)cc2)c1` was tested. Which Potency did it give?
A: The Potency was inconclusive: 89.1 µM [inhibitor, single point].
